Test results: publication PMC6387701
No constants are given. Whether binding was seen depends on the method and setting. Binding seen in cells or lysates may run through a third protein. Here binding means that the protein was enriched with, or labelled near, the bait; the list need not be complete.

Chains of the proteins cited; added tags and fusions are not shown.
UniProt Q12905: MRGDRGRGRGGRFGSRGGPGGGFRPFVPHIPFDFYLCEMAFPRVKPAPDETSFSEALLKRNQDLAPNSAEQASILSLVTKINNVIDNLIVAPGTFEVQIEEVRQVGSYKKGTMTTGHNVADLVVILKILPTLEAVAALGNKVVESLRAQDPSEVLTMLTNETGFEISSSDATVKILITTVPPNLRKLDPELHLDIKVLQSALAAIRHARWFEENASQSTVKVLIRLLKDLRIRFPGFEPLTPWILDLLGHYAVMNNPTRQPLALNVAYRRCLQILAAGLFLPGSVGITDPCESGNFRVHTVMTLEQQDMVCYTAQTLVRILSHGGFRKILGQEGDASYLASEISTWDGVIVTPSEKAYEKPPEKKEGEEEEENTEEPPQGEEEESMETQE

Target: Cyclic adenosine monophosphate (cAMP) response element-binding protein (CREB), endogenous (human (endogenous in Bel-7402 and SMMC-7721)) (UniProt P16220)
Assay: affinity purification with mass spectrometry; proteins immunoprecipitated by anti-CREB antibodies from Bel-7402 cells, ESI-Q-TOF-MS, three independent times

- binding: binds
Substance: Interleukin enhancer binding factor 2 (ILF2), endogenous (from UniProt Q12905 1-390)
